These are yes or no findings as the source states them, for the method shown. Binding seen in cells or lysates may run through a third protein. Some binding calls cover weakened binding; strength is not graded here.
Assays:
[1] = biological target: T1, CD1d, immature ER form (precipitated by antibody CD1d.D5) (UniProt P15813); assay: co-IP
T1 sequence: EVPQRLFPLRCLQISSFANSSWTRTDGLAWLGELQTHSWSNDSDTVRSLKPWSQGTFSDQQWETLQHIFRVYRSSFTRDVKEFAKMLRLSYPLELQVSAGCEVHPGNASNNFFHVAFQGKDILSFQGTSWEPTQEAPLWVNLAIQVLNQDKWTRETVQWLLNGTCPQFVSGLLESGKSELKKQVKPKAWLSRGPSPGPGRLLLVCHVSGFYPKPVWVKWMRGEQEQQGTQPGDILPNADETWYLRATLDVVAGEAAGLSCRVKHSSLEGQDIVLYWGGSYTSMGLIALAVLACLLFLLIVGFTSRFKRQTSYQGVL

Sequences of proteins named here, by UniProt entry; tags and fusion partners are left off. A change or cut given only in a name is not applied to a line headed by its entry.
UniProt P0DTC4: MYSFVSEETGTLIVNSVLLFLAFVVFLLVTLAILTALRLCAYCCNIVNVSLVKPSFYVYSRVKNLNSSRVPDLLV

[2] = biological target: T2, CD1d, mature post-ER form (precipitated by antibody CD1d.51.1) (UniProt P15813); assay: co-IP
T2 sequence (chain, complex glycosylation): T1 sequence

Substance	binding [1]	binding [2]
SARS-CoV-2 E protein transmembrane domain (TM, amino acids 9-38), Strep-tagged (from UniProt P0DTC4 9-38) (domain or fragment)	binds	binds
SARS-CoV-2 envelope (E) protein, Strep-tagged (from UniProt P0DTC4 1-75)	binds	
